Measured values as given in the supplement of paper PMC4604168 (melanoma cell lines).
This is one part of the list. Many values rest on one well or one pass, so single values are uncertain.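 The apoptosis fraction was the count of cleaved-PARP antibody-stained nuclei relative to all DNA-stained nuclei, imaged in 1,536-well plates. Screening doses were set so most cells survived, and baseline and induced cleaved-PARP levels vary greatly across cell lines.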

Experiments:
Assay in all cases: cleaved PARP positive nuclei fraction relative to DMSO control; melanoma cells; higher = more apoptosis
Settings in all cases: library dose: low library concentration; 72 h
[1] = test system: CBRC034 (line from a melanoma biopsy)
[2] = test system: COLO792
[3] = test system: COLO800
[4] = test system: COLO829
[5] = test system: G361
[6] = test system: IPC-298
[7] = test system: IST-MEL1
[8] = test system: LB2518-MEL
[9] = test system: LOXIMVI
[10] = test system: MZ2-MEL
[11] = test system: MeWo
[12] = test system: RPMI7951
[13] = test system: RVH-421
[14] = test system: SkMel28
[15] = test system: SkMel30
[16] = test system: SkMel5
[17] = test system: UACC257
[18] = test system: UACC62

Row | SMILES | cleaved PARP positive nuclei fraction [1] [%] | cleaved PARP positive nuclei fraction [2] [%] | cleaved PARP positive nuclei fraction [3] [%] | cleaved PARP positive nuclei fraction [4] [%] | cleaved PARP positive nuclei fraction [5] [%] | cleaved PARP positive nuclei fraction [6] [%] | cleaved PARP positive nuclei fraction [7] [%] | cleaved PARP positive nuclei fraction [8] [%] | cleaved PARP positive nuclei fraction [9] [%] | cleaved PARP positive nuclei fraction [10] [%] | cleaved PARP positive nuclei fraction [11] [%] | cleaved PARP positive nuclei fraction [12] [%] | cleaved PARP positive nuclei fraction [13] [%] | cleaved PARP positive nuclei fraction [14] [%] | cleaved PARP positive nuclei fraction [15] [%] | cleaved PARP positive nuclei fraction [16] [%] | cleaved PARP positive nuclei fraction [17] [%] | cleaved PARP positive nuclei fraction [18] [%]
1 | C[C@]1(c2nc3c(C(N)=O)cccc3[nH]2)CCCN1 [Veliparib] + CCN(CC)CCCCNc1ncc2cc(-c3cc(OC)cc(OC)c3)c(NC(=O)NC(C)(C)C)nc2n1 [PD173074] (first compound 1.4 µM, partner dose 0.1 µM) | 86.2 | 42.3 | 116 | 41 | 106 | 85.7 | 91.7 | 91.5 | 26.9 | 114 | 69.4 | 34.6 | 53.4 | 39.6 | 73.2 | 59.7 | 131 | 95.7
2 | Cc1nc(Nc2ncc(C(=O)Nc3c(C)cccc3Cl)s2)cc(N2CCN(CCO)CC2)n1 [dasatanib] + O=C(Nc1ccccc1)c1cc([N+](=O)[O-])ccc1Cl [GW9662] (first compound 0.004 µM, partner dose 2 µM) | 95.3 | 70.3 | 108 | 55.1 | 128 | 43.9 | 70.6 | 90.6 | 784 | 214 | 58.8 | 52.4 | 49 | 126 | 38.7 | 58.5 | 177 | 37.8
3 | O=C(Nc1cccc(Cl)c1)Nc1ncc(CCNc2ncnc3ccsc23)s1 + Cc1cc([N+](=O)[O-])ccc1NS(=O)(=O)c1cc(Cl)ccc1Cl [FH535] (first compound 0.0008 µM, partner dose 1 µM) | 196 | 131 | 127 | 184 | 135 | 122 | 206 | 151 | 70.4 | 70.4 | 161 | 76 | 119 | 194 | 29.2 | 148 | 79.3 | 158
4 | Cn1c(Nc2ccc(C(F)(F)F)cc2)nc2cc(Oc3ccnc(-c4ncc(C(F)(F)F)[nH]4)c3)ccc21 + COc1ccc(COc2ccc(Cc3cnc(N)nc3N)cc2OC)cc1 [GW2580] (first compound 0.08 µM, partner dose 1 µM) | 97.2 | 461 | 127 | 170 | 129 | 202 | 142 | 246 | 45.5 | 44.5 | 50.4 | 55 | 126 | 134 | 40.9 | 136 | 496 | 131
5 | COCC[n+]1c2c(n(Cc3cnccn3)c1C)C(=O)c1ccccc1C2=O + COc1ccc(-c2ccc3c(N4CCOCC4)nc(N4C[C@@H](C)O[C@@H](C)C4)nc3n2)cc1CO [KU0063794] (first compound 0.0004 µM, partner dose 0.02 µM) | 98.2 | 270 | 131 | 48.6 | 92.9 | 96.4 | 39 | 332 | 51.7 | 476 | 65.4 | 112 | 82.8 | 162 | 36.4 | 92.8 | 98.9 | 91.2
6 | COCC[n+]1c2c(n(Cc3cnccn3)c1C)C(=O)c1ccccc1C2=O + CC(C)CCN1c2nc(Nc3cc(F)c(O)c(F)c3)ncc2N(C)C(=O)C1C [BID1870] (first compound 0.0004 µM, partner dose 0.2 µM) | 48.2 | 168 | 415 | 52.7 | 152 | 71.9 | 46 | 106 | 73.2 | 333 | 42.3 | 84.7 | 57.6 | 159 | 119 | 219 | 205 | 130
7 | CO[C@@H]1[C@H](N(C)C(=O)c2ccccc2)C[C@H]2O[C@]1(C)n1c3ccccc3c3c4c(c5c6ccccc6n2c5c31)C(=O)NC4 [Midostaurin] + CC(C)CCN1c2nc(Nc3cc(F)c(O)c(F)c3)ncc2N(C)C(=O)C1C [BID1870] (first compound 0.08 µM, partner dose 0.2 µM) | 174 | 168 | 122 | 118 | 53.7 | 117 | 118 | 87 | 159 | 100 | 262 | 48 | 59.1 | 128 | 28.4 | 68.8 | 135 | 42.2
8 | Cn1c(Nc2ccc(C(F)(F)F)cc2)nc2cc(Oc3ccnc(-c4ncc(C(F)(F)F)[nH]4)c3)ccc21 + COc1cc2ncnc(Nc3ccc(Oc4ccccc4)cc3)c2cc1OC [SrcI1] (first compound 0.08 µM, partner dose 2 µM) | 94 | 399 | 46.8 | 74.1 | 170 | 337 | 42.3 | 75.7 | 73.1 | 175 | 143 | 121 | 64.2 | 224 | 31.3 | 195 | 858 | 72.5
9 | O=C(Nc1cccc(Cl)c1)Nc1ncc(CCNc2ncnc3ccsc23)s1 + CC(C)CCN1c2nc(Nc3cc(F)c(O)c(F)c3)ncc2N(C)C(=O)C1C [BID1870] (first compound 0.0008 µM, partner dose 0.2 µM) | 103 | 63 | 35.4 | 99 | 141 | 41.5 | 52 | 76.8 | 29.7 | 74.2 | 53.6 | 80.3 | 88 | 116 | 42.1 | 32.8 | 140 | 163
10 | CO[C@@H]1[C@H](N(C)C(=O)c2ccccc2)C[C@H]2O[C@]1(C)n1c3ccccc3c3c4c(c5c6ccccc6n2c5c31)C(=O)NC4 [Midostaurin] + O=C(O)C(=O)Nc1sc2c(c1C(=O)O)CCNC2 [TCS401] (first compound 0.08 µM, partner dose 1.66667 µM) | 82.9 | 118 | 322 | 107 | 120 | 64.4 | 142 | 41.4 | 67.8 | 189 | 51.2 | 195 | 37 | 84.3 | 20.3 | 63.6 | 115 | 29.5
11 | C[C@@H]1CCN(C(=O)CC#N)C[C@@H]1N(C)c1ncnc2[nH]ccc12 + CC(C)CCN1c2nc(Nc3cc(F)c(O)c(F)c3)ncc2N(C)C(=O)C1C [BID1870] (first compound 1 µM, partner dose 0.2 µM) | 48 | 68.7 | 510 | 123 | 97.2 | 97 | 88.3 | 72.8 | 56.4 | 135 | 105 | 82.3 | 47.9 | 188 | 14.5 | 54.6 | 127 | 87.3
12 | Cc1ccc(NC(=O)c2cccc(N(C)C)c2)cc1NC(=O)c1ccc(O)cc1 + O=C(Nc1ccccc1)c1cc([N+](=O)[O-])ccc1Cl [GW9662] (first compound 2 µM, partner dose 2 µM) | 44.8 | 88.7 | 148 | 53.1 | 31.5 | 186 | 115 | 97.7 | 39 | 213 | 60.2 | 94.8 | 118 | 865 | 38.6 | 54 | 46.8 | 54.2
13 | CO[C@@H]1[C@H](N(C)C(=O)c2ccccc2)C[C@H]2O[C@]1(C)n1c3ccccc3c3c4c(c5c6ccccc6n2c5c31)C(=O)NC4 [Midostaurin] + Cn1cc(/C=C2\C(=O)Nc3cccnc32)c2ccccc21 [GW441756] (first compound 0.08 µM, partner dose 0.4 µM) | 80.9 | 96.4 | 195 | 78.5 | 88.4 | 57 | 212 | 185 | 80.9 | 123 | 269 | 58.7 | 180 | 98.6 | 49 | 104 | 189 | 167
14 | CC1(C)NC(=O)N(c2ccc([N+](=O)[O-])c(C(F)(F)F)c2)C1=O [nilutamide] + COc1cc(N2CCC(N3CCN(C)CC3)CC2)ccc1Nc1ncc(Cl)c(Nc2ccccc2S(=O)(=O)C(C)C)n1 [NVP-TAE684] (first compound 1 µM, partner dose 0.08 µM) | 61.4 | 76.2 | 167 | 226 | 108 | 38.5 | 124 | 73.1 | 84.1 | 28 | 57.1 | 79 | 70.4 | 113 | 10.5 | 45.7 | 252 | 244
15 | C#Cc1cccc(Nc2ncnc3cc(OCCOC)c(OCCOC)cc23)c1 [erlotinib] + O=c1cc(-c2cccc3c2Sc2ccccc2S3)oc(N2CCOCC2)c1 [KU55933] (first compound 0.8 µM, partner dose 1 µM) | 104 | 103 | 60 | 58.1 | 80.2 | 132 | 68.6 | 144 | 28.2 | 234 | 115 | 44.7 | 55 | 71.2 | 49 | 60.2 | 147 | 77.9
16 | NC(=O)Nc1cc(-c2cccc(F)c2)sc1C(=O)N[C@H]1CCCNC1 + c1cc(-c2cnn3cc(-c4ccc(OCCN5CCCCC5)cc4)cnc23)ccn1 [Dorsomorphin] (first compound 0.02 µM, partner dose 0.4 µM) | 46.1 | 60.4 | 110 | 115 | 165 | 103 | 242 | 72.1 | 59.3 | 70.1 | 89.7 | 53 | 25.8 | 130 | 18.7 | 30.9 | 73.9 | 40.8

An excerpt of these results, as a markdown table:

| Row | SMILES | cleaved PARP positive nuclei fraction [1] [%] | cleaved PARP positive nuclei fraction [2] [%] | cleaved PARP positive nuclei fraction [3] [%] | cleaved PARP positive nuclei fraction [4] [%] | cleaved PARP positive nuclei fraction [5] [%] | cleaved PARP positive nuclei fraction [6] [%] | cleaved PARP positive nuclei fraction [7] [%] | cleaved PARP positive nuclei fraction [8] [%] | cleaved PARP positive nuclei fraction [9] [%] | cleaved PARP positive nuclei fraction [10] [%] | cleaved PARP positive nuclei fraction [11] [%] | cleaved PARP positive nuclei fraction [12] [%] | cleaved PARP positive nuclei fraction [13] [%] | cleaved PARP positive nuclei fraction [14] [%] | cleaved PARP positive nuclei fraction [15] [%] | cleaved PARP positive nuclei fraction [16] [%] | cleaved PARP positive nuclei fraction [17] [%] | cleaved PARP positive nuclei fraction [18] [%] |
| --- | --- | --- | --- | --- | --- | --- | --- | --- | --- | --- | --- | --- | --- | --- | --- | --- | --- | --- | --- |
| 8 | Cn1c(Nc2ccc(C(F)(F)F)cc2)nc2cc(Oc3ccnc(-c4ncc(C(F)(F)F)[nH]4)c3)ccc21 + COc1cc2ncnc(Nc3ccc(Oc4ccccc4)cc3)c2cc1OC [SrcI1] (first compound 0.08 µM, partner dose 2 µM) | 94 | 399 | 46.8 | 74.1 | 170 | 337 | 42.3 | 75.7 | 73.1 | 175 | 143 | 121 | 64.2 | 224 | 31.3 | 195 | 858 | 72.5 |
| 15 | C#Cc1cccc(Nc2ncnc3cc(OCCOC)c(OCCOC)cc23)c1 [erlotinib] + O=c1cc(-c2cccc3c2Sc2ccccc2S3)oc(N2CCOCC2)c1 [KU55933] (first compound 0.8 µM, partner dose 1 µM) | 104 | 103 | 60 | 58.1 | 80.2 | 132 | 68.6 | 144 | 28.2 | 234 | 115 | 44.7 | 55 | 71.2 | 49 | 60.2 | 147 | 77.9 |
